According to PubChem BioAssay AID328 (DTP/NCI, 2004):
The list is a part of this screen's results and no random one: it gathers tests that were run many times, whatever their T/C, doses with no T/C, and many T/C values between a quarter and a half above the control. Further doses and runs are listed elsewhere. T/C: endpoint of the treated group in % of that of the vehicle group. Some entries give survivors of the animals treated and no T/C: the source files T/C as zero there, which appears to mark a toxic dose or a test without result, not a measured value. Some survivor counts are full or nearly so, which does not show that the dose was tolerated: survival well below the control is almost never listed, so the zero probably covers shortened survival too. Survivors were counted at the toxicity check, usually on the fifth day, unless a day is given; later deaths do not show. Schedules are NCI's codes, read here as Q, the interval in days (D) or hours (H), X, the number of doses. Some doses were run more than once; the values are given in rising order. Where survival is the endpoint, the PubChem record calls one and a half times the control and up active, and a quarter to a half above the control has no call in these data; cut-offs in other NCI protocols can differ. Some T/C values carry the count of animals alive at the toxicity check (mostly the fifth day); where none is given, no animal had died by that day.

Test system: BDF1 mice, P388 leukemia ip, median survival T/C
Experiment: NCI In Vivo Anticancer Drug Screen. Data for tumor model P388 Leukemia (intraperitoneal) in B6D2F1 (BDF1) mice
Conditions: T/C endpoint: median survival time, higher T/C = longer survival
Summary of the method: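 T/C = treated-group survival ÷ vehicle-control survival; tumour transplanted into mice before dosing.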

[1] = dose: 200.0 mg/kg/injection, schedule: Q01DX009 (ip), vehicle: Klucel (hydroxypropylcellulose) (HPC)
[2] = dose: 400.0 mg/kg/injection, schedule: Q01DX009 (ip), vehicle: Klucel (hydroxypropylcellulose) (HPC)
[3] = dose: 200.0 mg/kg/injection, schedule: Q01DX009 (ip), vehicle: saline with Tween-80
[4] = dose: 400.0 mg/kg/injection, schedule: Q01DX009 (ip), vehicle: saline with Tween-80
[5] = dose: 300.0 mg/kg/injection, schedule: Q01DX009 (ip), vehicle: saline with Tween-80

## CC(=O)CC(C)=O.CC(=O)CC(C)=O.O.O.[Ni]
dose: 50.0 mg/kg/injection, schedule: Q04DX003 (ip), vehicle: saline
  T/C: 126 % of control
dose: 100.0 mg/kg/injection, schedule: Q04DX003 (ip), vehicle: saline with Tween-80
  survivor count: 0 of 6
dose: 200.0 mg/kg/injection, schedule: Q04DX003 (ip), vehicle: saline with Tween-80
  survivor count: 0 of 6
dose: 400.0 mg/kg/injection, schedule: Q04DX003 (ip), vehicle: saline with Tween-80
  survivor count: 0 of 6

## CCOC(=O)c1cnn(C(N)=O)c1N
dose: 100.0 mg/kg/injection, schedule: Q01DX009 (ip), vehicle: saline with Tween-80
  survivor count: 6 of 6

## CC(=O)OC1C=COC(C)C1OC(C)=O (configuration not stated)
dose: 200.0 mg/kg/injection, schedule: Q01DX009 (ip), vehicle: saline
  survivor count: 5 of 6
dose: 400.0 mg/kg/injection, schedule: Q01DX009 (ip), vehicle: saline
  survivor count: 3 of 6

## C=C(C)C(=O)OC1CC2=CC(CC3(C)OC3C3OC(=O)C(=C)C13)OC2=O (configuration not stated)
dose: 9.0 mg/kg/injection, schedule: Q01DX009 (ip), vehicle: Klucel (hydroxypropylcellulose) (HPC)
  T/C: 126 % of control

## S=C(NNc1ccccc1)Nc1ccccc1
[1]
  survivor count: 6 of 6

## C[C@@H]1C[C@@]2(C)[C@@H](CC[C@@H]3[C@@H]2CC[C@]2(C)[C@@H](OC4CCCCO4)CC[C@@H]32)CC1=O (some centres not stated)
dose: 100.0 mg/kg/injection, schedule: Q01DX009 (ip), vehicle: Klucel (hydroxypropylcellulose) (HPC)
  survivor count: 6 of 6
[2]
  survivor count: 6 of 6

## CCCCCCCCCCCCS(=O)CC(C)O (configuration not stated)
dose: 50.0 mg/kg/injection, schedule: Q01DX009 (ip), vehicle: other
  T/C: 126 % of control
dose: 200.0 mg/kg/injection, schedule: Q01DX009 (ip), vehicle: other
  T/C: 133 % of control

## CCCN(CCC)CCSC(=S)NCCOC
[3]
  survivor count: 3 of 6

## CCCCCCOC(CN(C)C)C(Cl)(Cl)Cl (configuration not stated)
[4]
  survivor count: 6 of 6

## CC1CN=C(c2ccc(NC(=O)c3ccc(C(=O)Nc4ccc(C5=NCC(C)N5)cc4)c(N)c3)cc2)N1 (configuration not stated)
dose: 6.7 mg/kg/injection, schedule: Q04DX003 (ip), vehicle: saline with Tween-80
  T/C: 136 % of control
dose: 10.0 mg/kg/injection, schedule: Q04DX003 (ip), vehicle: saline with Tween-80
  T/C: 145 % of control

## CC1(C)C(N2CCOCC2)C(c2ccccc2)S1(=O)=O (configuration not stated)
dose: 200.0 mg/kg/injection, schedule: Q01DX001 (ip), vehicle: saline with Tween-80
  survivor count: 5 of 6

## COc1ccc(C=O)cc1OCc1ccccc1
dose: 25.0 mg/kg/injection, schedule: Q01DX009 (ip), vehicle: water
  T/C: 126 % of control
dose: 50.0 mg/kg/injection, schedule: Q01DX009 (ip), vehicle: water
  survivor count: 6 of 6
dose: 100.0 mg/kg/injection, schedule: Q01DX009 (ip), vehicle: water
  survivor count: 6 of 6
dose: 200.0 mg/kg/injection, schedule: Q01DX009 (ip), vehicle: water
  survivor count: 6 of 6
dose: 400.0 mg/kg/injection, schedule: Q01DX009 (ip), vehicle: water
  survivor count: 6 of 6
dose: 400.0 mg/kg/injection, schedule: Q04DX003 (ip), vehicle: water
  survivor count: 3 of 6

## [Cl][Co]([Cl])[Cl].[NH-]CC[N-]CC[NH-]
[3]
  survivor count: 4 of 6

## COc1ccc2c(c1OC)C(=O)NC2=O
dose: 200.0 mg/kg/injection, schedule: Q01DX008 (ip), vehicle: Klucel (hydroxypropylcellulose) (HPC)
  survivor count: 6 of 6

## CS(=O)(=O)N(CC(=O)O)Cc1ccc(Cl)c(Cl)c1
dose: 100.0 mg/kg/injection, schedule: Q04DX003 (ip), vehicle: other
  T/C: 126 % of control

## Cn1cc(N)c2ccccc2c1=O
dose: 200.0 mg/kg/injection, schedule: Q01DX005 (ip), vehicle: suspension in saline
  survivor count: 0 of 5

## COc1cc2c(cc1OC)[C@H]1CNC[C@H]1[C@@H](c1ccccc1)C2
dose: 200.0 mg/kg/injection, schedule: Q01DX001 (ip), vehicle: Klucel (hydroxypropylcellulose) (HPC)
  T/C: 145 % of control
dose: 400.0 mg/kg/injection, schedule: Q01DX001 (ip), vehicle: Klucel (hydroxypropylcellulose) (HPC)
  survivor count: 0 of 6 and 1 of 6

## CC(=O)C1C(=O)OC2(C)C(=O)C3=COC(/C=C\C(C)=C/C(C)C)=CC3=CC12 (configuration not stated)
[5]
  T/C: 127 % of control

## O=S(=O)(Sc1ccc(N(CCCl)CCCl)cc1)c1ccc(N(CCCl)CCCl)cc1
[5]
  T/C: 135 % of control
[4]
  T/C: 140 % of control [5 of 6 alive]

## Nc1nc(SSc2nc(N)nc3c2ncn3C2CC(O)C(CO)O2)c2ncn(C3CC(O)C(CO)O3)c2n1 (configuration not stated)
[1]
  survivor count: 6 of 6
[2]
  survivor count: 2 of 6

## Cc1cc(N(CCCl)CCCl)ccc1C=Nc1ccccc1C(=O)O
dose: 50.0 mg/kg/injection, schedule: Q01DX009 (ip), vehicle: saline with Tween-80
  T/C: 128 % of control
[5]
  survivor count: 5 of 6
